{"source": "the supplement of paper PMC12889115", "test_system": "Salmonella enterica serovar Typhimurium SL1344", "experiment": "bacterial growth OD600 after 18 h with compound and polymyxin B; higher = more bacterial growth (less inhibition)", "conditions": "50 µM, Mueller-Hinton broth", "note": "This is one part of the list. These are raw signals, not scaled to a control.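 In the initial screen, polymyxin B was used at a concentration that permeabilizes Salmonella's outer membrane but not its inner membrane. Maximum growth was set by DMSO wells with or without polymyxin B. Since plates varied, data were ranked per plate, and compounds giving the lowest OD600 advanced as hits.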"}
{"smiles": "O=C(NCCN1CCOCC1)c1ccc(N2CCC(N3CCCC(c4ccccc4)CC3)CC2)cc1", "note": "(stereo not given)", "values": [{"measurement": "bacterial growth OD600", "setting": "polymyxin B 0.75 µg/mL", "value": 0.83}]}
{"smiles": "Cc1nn(C)c(C)c1CCC(=O)NCc1nc(-c2ccc(NC(=O)Cc3ccccc3)cc2)oc1C", "values": [{"measurement": "bacterial growth OD600", "setting": "polymyxin B 0.75 µg/mL", "value": 0.89}]}
{"smiles": "O=C(NCCc1cnccn1)C1CCN(c2nc(-c3ccccc3)nc3c2CCC3)CC1", "values": [{"measurement": "bacterial growth OD600", "setting": "polymyxin B 0.75 µg/mL", "value": 0.818}]}
{"smiles": "O=C(NCCn1cccn1)c1cc(Cn2cnc3ccccc32)on1", "values": [{"measurement": "bacterial growth OD600", "setting": "polymyxin B 1 µg/mL", "value": 1.29}]}
{"smiles": "Cc1cc(C)nc(N2C[C@H]3OC(=O)N(CCN4CCCCC4)[C@H]3C2)n1", "values": [{"measurement": "bacterial growth OD600", "setting": "polymyxin B 1 µg/mL", "value": 1.2}]}
{"smiles": "CCC(CC)NC(C)c1cnn(-c2ccc(F)cc2F)c1C", "note": "(stereo not given)", "values": [{"measurement": "bacterial growth OD600", "setting": "polymyxin B 1 µg/mL", "value": 1.01}]}
{"smiles": "CN(CCc1nc2ccccc2[nH]1)C(=O)c1cn(Cc2ccccc2Cl)nn1", "values": [{"measurement": "bacterial growth OD600", "setting": "polymyxin B 1 µg/mL", "value": 0.875}]}
{"smiles": "C#CCN(CC=C)C(=O)C1CCC(=O)N(CCc2ccc(OC)cc2)C1", "note": "(stereo not given)", "values": [{"measurement": "bacterial growth OD600", "setting": "polymyxin B 1 µg/mL", "value": 0.943}]}
{"smiles": "COc1ccc(CNC(=O)CCC2(Cc3ccc(F)c(OC)c3)CCC(=O)N2)cc1", "note": "(stereo not given)", "values": [{"measurement": "bacterial growth OD600", "setting": "polymyxin B 0.75 µg/mL", "value": 0.878}]}
{"smiles": "Cc1cccc(CNCC2(O)CCCN(Cc3cccc(F)c3F)C2=O)c1", "note": "(stereo not given)", "values": [{"measurement": "bacterial growth OD600", "setting": "polymyxin B 0.75 µg/mL", "value": 0.889}]}
{"smiles": "COc1cccc(CC2=NOC(C(=O)N3CCC(C(O)(c4ccccc4)c4ccccc4)CC3)C2)c1", "note": "(stereo not given)", "values": [{"measurement": "bacterial growth OD600", "setting": "polymyxin B 0.75 µg/mL", "value": 0.668}]}
{"smiles": "CCCN1CCC(NC2CCCc3nc(N(C)C)ncc32)CC1", "note": "(stereo not given)", "values": [{"measurement": "bacterial growth OD600", "setting": "polymyxin B 1 µg/mL", "value": 0.996}]}
{"smiles": "CCc1ccc(CN(C)C(=O)CCC2(Cc3ccc(OC)cc3F)CCC(=O)N2)cc1", "note": "(stereo not given)", "values": [{"measurement": "bacterial growth OD600", "setting": "polymyxin B 0.75 µg/mL", "value": 1}]}
{"smiles": "COc1ccc(CN2CCN(Cc3cnc(C)s3)CC2CCO)c(C)c1C", "note": "(stereo not given)", "values": [{"measurement": "bacterial growth OD600", "setting": "polymyxin B 1 µg/mL", "value": 0.945}]}
{"smiles": "O=C(CC1(c2ccccc2)CC(=O)N(Cc2cccs2)C1=O)N1CC[C@@H]2CCCC[C@H]2C1", "note": "(stereo not given in full)", "values": [{"measurement": "bacterial growth OD600", "setting": "polymyxin B 0.75 µg/mL", "value": 0.579}]}
{"smiles": "CC(=O)N[C@@H](C)C(=O)NCc1cccnc1N(C)Cc1ccccc1", "values": [{"measurement": "bacterial growth OD600", "setting": "polymyxin B 0.75 µg/mL", "value": 0.94}]}
{"smiles": "CC(=O)c1cccc(OCc2cc(C(=O)N3CCCC3)n[nH]2)c1", "values": [{"measurement": "bacterial growth OD600", "setting": "polymyxin B 1 µg/mL", "value": 0.959}]}
{"smiles": "COc1ccc(C(=O)C2CCCN(C(=O)CCc3ccccc3OC)C2)c(C)c1", "note": "(stereo not given)", "values": [{"measurement": "bacterial growth OD600", "setting": "polymyxin B 1 µg/mL", "value": 0.049}]}
{"smiles": "CN(CC1CCCN(CCc2ccc(Cl)cc2)C1)C(=O)c1cc2ncccn2n1", "note": "(stereo not given)", "values": [{"measurement": "bacterial growth OD600", "setting": "polymyxin B 1 µg/mL", "value": 0.938}]}
{"smiles": "CN(c1ncccc1CNC(=O)Cn1cncn1)C1CCCCC1", "values": [{"measurement": "bacterial growth OD600", "setting": "polymyxin B 1 µg/mL", "value": 0.929}]}
